Here are results for 62 molecules from PubChem BioAssay AID2685 (National Center for Advancing Translational Sciences (NCATS), 2010).

This is one part of the list. These are further read-outs of the screen, such as a control signal, another cell line or another target. No call is given for them. The list favours compounds with an active or inconclusive main result. The note in brackets gives the kind of curve behind each potency; many fits are weak.

The nature of the assay: qHTS Assay for Lipid Storage Modulators in Drosophila S3 Cells.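 On cell number change: cells counted by Cell Tracker Red CMTPX staining in the red channel.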 To be noted: BODIPY lipid droplet fluorescence, 18-24 h; for cell number change: measured here: cell count max response, cells fed with added oleic acid. A digest of the protocol: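 Drosophila S3 cells got compounds at several concentrations plus oleic acid (400 uM solution). Laser-scanning cytometry with 488 nm excitation read lipid droplets at 500-530 nm and cells at 575-640 nm. Percent activity was relative to 20 uM Triacsin C.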
(In qHTS, concentration-response curves come from the screen itself.)

The mark [1] stands for this setting: measured here: cell number channel AC50, cells fed with added oleic acid.
[2] abbreviates: measured here: lipid fluorescence (Fed channel) AC50, cells fed with added oleic acid.

In general, AC50 refers to the concentration giving half of the maximal activity seen. Low values mean activity at low concentration, high ones activity only at high concentration. In the case of `Cc1cnc(C(=O)OCC(=O)NCc2cccc(Cl)c2)cn1`, the cell number change was -7.71%. For the same molecule, the AC50 under setting [1] is 6.51 µM [falling, single point].
With `CCOC(=O)CN1C(=O)C(C)(C)Oc2ccc(C(=O)Nc3ccccc3OC)cc21`, the cell number change amounted to 36.1%. Besides, the AC50 under setting [1] is 0.184 µM [rising, full curve]. Moreover, under setting [2], the AC50 is 0.13 µM [rising, full curve].
Consider `Cn1cccc1C(=O)OCc1ccc(C(C)(C)C)cc1`, for which the cell number change is -3.95%. The AC50 under setting [2] is 5.62 µM [falling, single point].
With `COc1ccc(CN2CCN(C)CC2)cc1OCc1ccccc1`, under setting [2], the AC50 was 20.6 µM [falling, partial curve].
As to `CCCOc1ccc2c3c(c(=O)oc2c1OCCC)CCC3`, the cell number change was -12.1%. Also, the AC50 under setting [2] is 1.64 µM [rising, partial curve].
For `COC(=O)CCC(=O)OC1(C)C(=O)C2=CN(C3CCCC3)C(c3ccc(OC)cc3)=CC2=C(Br)C1=O` (stereo not drawn), the cell number change was -50.7%. Further, under setting [1], the half-maximal activity concentration (AC50) is 16.4 µM [falling, single point]. The AC50 under setting [2] is 23.1 µM [falling, single point].
For `O=C(NC1CCCc2ccccc21)c1cc(S(=O)(=O)N2CCOCC2)ccc1F` (stereo not drawn), the cell number change was found to be 43.2%. In addition, under setting [1], the AC50 was 13 µM [rising, single point].
In the case of `N#Cc1cccc(NC(=O)CCNC(=O)c2ccccc2Cl)c1`, the cell number change is 2.78%.
Still for that read-out and setting: then `C/C(=N\Nc1cc(C)nc(-c2ccccc2)n1)c1cccc([N+](=O)[O-])c1`, with -15.6%.
Regarding `CC(C)Nc1nc(NC(N)=S)nc(NC(C)C)n1`, the cell number change is 11.5%.
Turning to `COc1ccc(S(=O)(=O)Oc2cc(C(=S)N3CCOCC3)ccc2OC)cc1`, the cell number change is -10.2%.
Regarding `CN(CC(=O)Nc1ccc(Cl)cc1)C(=O)c1ccc(COc2ccccc2)cc1`, the cell number change is -42%. Further, the AC50 under setting [1] is 20.6 µM [falling, partial curve, poor fit]. For the same molecule, the AC50 under setting [2] was 23.1 µM [falling, partial curve, poor fit].
In the case of `O=C(COc1ccc2c3c(c(=O)oc2c1)CCCC3)N1CCN(c2ccc(F)cc2)CC1`, the cell number change was -7.31%. The AC50 under setting [2] was 29.1 µM [falling, single point].
As for `COC(=O)c1ccccc1NC(=O)CSc1n[nH]c(CC(C)C)n1`, the cell number change was determined as 7%. Under setting [2], the AC50 is 6.51 µM [rising, partial curve].
Consider `O=C(O)C(Oc1ccc2c(-c3ccccc3)cc(=O)oc2c1)c1ccccc1` (stereo not drawn), for which the cell number change came to 16%. Further, the concentration at half-maximal activity (AC50) under setting [2] was 10.3 µM [rising, partial curve, poor fit].
Regarding `CC(C)C(NS(=O)(=O)c1ccc2c(c1)oc(=O)n2C)C(=O)N1CCN(c2ccccc2F)CC1` (stereo not drawn), the cell number change is -4.62%. Besides, the AC50 under setting [2] was 32.6 µM [rising, single point].
For `CCOc1ccc(C(C#N)N2CCOCC2)cc1OC` (stereo not drawn), the cell number change was 6%.
As for `Cc1cc(C)c(S(=O)(=O)Cc2ccccc2)c(Cl)n1`, the cell number change was 2.82%. Also, the AC50 under setting [2] was 3.26 µM [rising, single point].
For the molecule `COc1ccccc1/C=N/NC(=O)c1ccc(CN2C(=O)c3cccc4cccc2c34)cc1`, the cell number change turned out to be 11.3%. The AC50 under setting [2] was 4.61 µM [rising, single point].
On to `C=C(C)CN1CCN(c2ccc(N3C(=O)CCCC3=O)cc2[N+](=O)[O-])CC1`, for which the AC50 under setting [1] was 6.51 µM [falling, single point].
Consider `Cc1nc2c([N+](=O)[O-])c(C)c(C)cc2[nH]1`, for which the cell number change is -48.6%. For the same molecule, the AC50 under setting [1] was 25.9 µM [falling, single point]. Further, the AC50 under setting [2] was 29.1 µM [falling, single point].
Regarding `O=C(NCCCN1CCOCC1)c1ccc(/C=C2\Oc3ccccc3N(Cc3ccccc3F)C2=O)cc1`, the AC50 under setting [2] was 3.26 µM [rising, partial curve].
With `CCCCNC(=O)NS(=O)(=O)c1ccc(NC(=O)CCC(=O)c2cccs2)cc1`, the cell number change was determined as 23.7%. The AC50 under setting [2] was 0.58 µM [rising, single point].
For the molecule `O=C(O)C1(NS(=O)(=O)c2ccc(Cl)cc2)CCCCC1`, the cell number change was -32%. Further, under setting [1], the AC50 is 16.4 µM [falling, partial curve, poor fit].
For the molecule `CCCN(Cc1ccc(N(CC)CC)cc1)CC1CC1`, the cell number change turned out to be 17.7%. For the same molecule, under setting [2], the AC50 is 7.31 µM [rising, partial curve].
Consider `CNC(=O)c1cc2ccc(OC)cc2oc1=O`, for which, under setting [1], the AC50 was 6.51 µM [falling, single point].
On to `O=C(c1cccc(-c2nnc(-c3ccccc3)o2)c1)N1CCCCCC1`, for which the cell number change was found to be 12.3%. Further, the AC50 under setting [1] was 0.058 µM [rising, full curve, poor fit].
Regarding `CCN(CC)/C(=N/O)NC(=O)NS(=O)(=O)c1ccc(C)cc1`, the cell number change amounted to 1.28%. For the same molecule, the AC50 under setting [2] was 7.31 µM [falling, partial curve, poor fit].
`CCCN(C(=O)c1ccc2c(SCC(=O)O)c3c(nc2c1)CCC3)c1cccc(C)c1`: the cell number change is 13.9%. Further, the AC50 under setting [2] was 0.58 µM [falling, partial curve].
In the case of `O=C(NC1CCCCC1)C(c1ccncc1)N(C(=O)c1csnn1)c1ccccc1` (stereo not drawn), the cell number change was 5.46%.
Take `Cc1cccc(C)c1NC(=O)CN(C)C(=O)[C@H](C)NC(=O)c1ccco1`: the cell number change was -23.4%. Further, the concentration at half-maximal activity (AC50) under setting [1] is 2.06 µM [falling, partial curve]. The AC50 under setting [2] is 4.11 µM [rising, full curve, poor fit].
As for `CCc1nc(SCC(=O)Nc2ccccc2C(=O)OC)n[nH]1`, the cell number change amounted to 8.4%. Also, the AC50 under setting [2] is 5.8 µM [rising, single point].
Consider `CCOC(=O)c1[nH]c2ccc(F)cc2c1NC(=O)C1=COCCO1`, for which the cell number change is 18.2%. Besides, the half-maximal activity concentration (AC50) under setting [2] was 20.6 µM [rising, partial curve].
With `CC[N+](C)(CC)CCC(c1ccccc1)C1CCCCC1` (stereo not drawn), the cell number change is 17.9%.
For the molecule `Cc1ccc(NC(=O)NCC(c2ccccc2)N(C)C)cc1` (stereo not drawn), the cell number change was 17.3%. For the same molecule, the AC50 under setting [2] was 7.31 µM [rising, partial curve].
On to `Nc1nonc1OCCOCCOCCOc1nonc1N`, for which the cell number change came out at 5.96%. Further, the AC50 under setting [1] was 0.58 µM [falling, single point].
In the case of `CCC(=O)N1CCN(c2ccccc2NC(=O)COc2cccc(C)c2C)CC1`, the cell number change was -29.5%. Moreover, under setting [2], the AC50 was 29.1 µM [falling, single point].
For the molecule `O=C(c1ccco1)N1CCN(C(=O)c2nn3cccnc3c2Cl)CC1`, the cell number change was determined as 15.1%. In addition, the AC50 under setting [2] was 20.6 µM [rising, single point].
`Cc1onc(-c2ccccc2Cl)c1C(=O)N(C)CC(=O)Nc1ccc(F)c(F)c1F`: the AC50 under setting [2] was 6.51 µM [falling, partial curve, poor fit].
For the molecule `Cc1cccc(C)c1Nc1nnc(SC/C(O)=C(\C#N)c2nc3ccccc3[nH]2)s1`, the cell number change came out at 29.3%. Also, under setting [2], the AC50 was 2.59 µM [rising, full curve].
For the molecule `CCO[C@@H]1OC(C(=O)O)=C[C@H](c2csc3ccccc23)[C@H]1CCCO`, the cell number change is 2.65%. Further, under setting [2], the AC50 is 0.58 µM [falling, single point].
As to `Cc1c(/C(O)=C2/C(=O)C(=O)N(CCN3CCOCC3)C2c2cccs2)cnn1-c1ccccc1` (stereo not drawn), the cell number change is 68.8%. Further, the AC50 under setting [1] is 23.1 µM [rising, single point]. For the same molecule, the AC50 under setting [2] was 29.1 µM [rising, single point].
Turning to `COC(=O)CCC(=O)NC(=S)Nc1cc(Cl)ccc1Cl`, the cell number change was -8.23%.
In the case of `O=C(CSc1nc2[nH]c(=O)[nH]c(=O)c2s1)Nc1cccc(F)c1`, the cell number change turned out to be 13.4%. The AC50 under setting [2] is 3.26 µM [rising, single point].
With `O=C(NCCN1CCOCC1)/C(=C/c1ccccc1)NC(=O)c1ccccc1`, the cell number change turned out to be 6.58%. The AC50 under setting [1] is 0.82 µM [falling, full curve, poor fit].
With `O=C(C1CCCN(Cc2ccccc2F)C1)N1CCCCC1` (stereo not drawn), the cell number change is -23.7%. Moreover, the concentration at half-maximal activity (AC50) under setting [2] was 0.82 µM [falling, full curve].
For `COc1cccc(-c2cc(C(=O)N3CCc4ccccc4C3)[nH]n2)c1`, the cell number change is -8.66%.
Take `CCN1C(=O)C2(SC(NC(C)=O)=NN2C(C)=O)c2cc(C)cc(C)c21` (stereo not drawn): the cell number change worked out at 2.67%. Moreover, the AC50 under setting [1] was 0.731 µM [rising, partial curve, poor fit].
`c1cn(-c2ccc(-c3ccnc4ncnn34)cc2)cn1`: under setting [1], the AC50 is 1.03 µM [rising, full curve, poor fit].
Take `Cc1cccc(C(C)(C)C)c1OCCn1ccnc1`: the AC50 under setting [1] was 2.59 µM [rising, partial curve] and the AC50 under setting [2] was 0.58 µM [rising, single point].
On to `O=C(Nc1cccs1)N1CCN(c2ncccn2)CC1`, for which the cell number change was 16.7%.
As to `Cc1ccc(NC(=O)COC(=O)c2csc3c2CCC(C)C3)cc1S(=O)(=O)N1CCCCC1` (stereo not drawn), the cell number change was found to be 28.9%. Also, the AC50 under setting [2] was 18.4 µM [rising, single point].
On to `COc1ccc(-c2cn[nH]c2-c2ccc(O)cc2O)cc1OC`, for which the cell number change was -6.34%. In addition, the AC50 under setting [2] was 7.31 µM [falling, partial curve].
With `COc1ccc(S(=O)(=O)N2CCN(C)CC2)c2ccccc12`, the cell number change is -11.3%. Also, the AC50 under setting [1] is 0.00366 µM [falling, full curve, poor fit]. In addition, the AC50 under setting [2] is 14.6 µM [falling, partial curve].
Turning to `COc1ccc(/C=N/n2c(C)nc3sc(C)c(C)c3c2=O)cc1`, the cell number change stood at 41.8%. In addition, the AC50 under setting [2] is 29.1 µM [rising, single point].
For `N#Cc1c(N)n(C2CCCCC2)c2nc3ccccc3nc12`, the AC50 under setting [2] is 10.3 µM [falling, partial curve].
Regarding `CC(=O)c1ccc2c3c(ccc(O)c13)CC2`, the cell number change stood at 2.85%. The AC50 under setting [2] is 8.2 µM [rising, partial curve].
In the case of `CC1(C)NC(=O)N(CC(=O)N2CCN(c3cccc(C(F)(F)F)c3)CC2)C1=O`, the cell number change came to 16.2%. For the same molecule, the AC50 under setting [2] was 29.1 µM [rising, single point].
With `O=C(CCN1C(=O)/C(=C\c2cccc(Br)c2)SC1=S)NCCCN1CCOCC1`, the cell number change is 2.99%. The AC50 under setting [2] is 23.1 µM [rising, single point].
`COCCNC(=O)c1onc(CSc2cccc(OC)c2)c1C(=O)O`: the cell number change worked out at 160%.
With `CS(=O)(=O)N(CC(=O)NC1CC2CCC1C2)c1ccc(Oc2ccccc2)cc1` (stereo not drawn), the cell number change was -8.51%. Also, the AC50 under setting [2] is 29.1 µM [falling, single point].
For `COc1ccc(NC(=O)COC(=O)c2cc(OC)c(OC)c(OC)c2)c([N+](=O)[O-])c1`, the cell number change was 12.7%. The AC50 under setting [2] is 0.291 µM [rising, partial curve, poor fit].
